Results are given in words; binding and its absence hold for the method and conditions named. For some of these results: In cells and extracts the contact can be indirect. Some binding calls cover weakened binding; strength is not graded here. Tags and fused reporters may be left off the sequences shown. One block for each molecule: values may come before it.
Legend:
[1] = biological target: T1, nYFP-GW6a (tobacco leaves, pBI-2YN) (rice (Oryza sativa)) (UniProt Q67UR2); assay: split reporter; BiFC, split YFP, in N. benthamiana leaves; confocal microscopy; H2B-mCherry as nuclear marker
T1 sequence: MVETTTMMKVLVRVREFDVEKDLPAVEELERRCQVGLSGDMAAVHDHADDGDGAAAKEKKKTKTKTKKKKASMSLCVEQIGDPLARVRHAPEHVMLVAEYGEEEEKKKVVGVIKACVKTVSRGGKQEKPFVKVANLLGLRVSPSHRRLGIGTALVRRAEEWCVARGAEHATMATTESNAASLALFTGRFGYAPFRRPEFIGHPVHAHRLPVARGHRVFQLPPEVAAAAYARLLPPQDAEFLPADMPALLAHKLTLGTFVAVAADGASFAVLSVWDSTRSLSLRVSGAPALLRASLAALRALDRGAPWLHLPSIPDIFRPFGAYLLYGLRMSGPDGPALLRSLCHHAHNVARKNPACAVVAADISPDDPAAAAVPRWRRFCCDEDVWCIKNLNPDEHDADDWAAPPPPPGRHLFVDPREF

[2] = biological target: T2, GRAIN WEIGHT 6a (GW6a), yeast two-hybrid fusion used for the screen (rice (Oryza sativa)) (UniProt Q67UR2); assay: two-hybrid; yeast two-hybrid screen for proteins that interact with GW6a; no methods given
T2 sequence: T1 sequence

[3] = biological target: GST-OsMAPK6 (rice (Oryza sativa)) (UniProt Q84UI5); assay: pull-down; GST-tag purification resin incubated with GST or the GST fusion at 4 C for 1 h, then with CLG1-Myc or His-GW6a at 4 C for 1 h; washed with PBS, 0.05% SDS, 1% Triton X-100; immunoblot with anti-GST, anti-Myc or anti-GW6a
[4] = biological target: OsMAPK6-GFP (rice (Oryza sativa)) (UniProt Q84UI5); assay: co-IP; N. benthamiana leaves co-expressing GW6a-Myc and the GFP fusion (or GFP), 72 h; total protein on anti-GFP affinity beads, 4 C, 3 h; immunoblot with anti-GFP and anti-Myc
[5] = biological target: T3, GW6a-nLUC (rice (Oryza sativa)) (UniProt Q67UR2); assay: split reporter; split firefly luciferase complementation in N. benthamiana leaves; GW6a-nLUC with CLG1-cLUC, GW2-cLUC or HDR3-cLUC, with or without a third protein as GFP fusion (GW2-GFP, HDR3-GFP, CLG1-GFP); LUC signal by CCD imaging
T3 sequence: T1 sequence

B1: His-GW6a (protein, UniProt Q67UR2 1-419)
chain: T1 sequence
binding [3]: binds

B2: GW6a-Myc (protein, UniProt Q67UR2 1-419)
chain: T1 sequence
binding [4]: binds

B3: HDR3-cLUC (protein, UniProt Q10NJ6 1-501)
chain: MAYSSRSCDQCSHERRSGFMKWLCAFLKGTKDGEANRRRPRVTAGEETTLWEEPVRPKKEEPPRHNNEEMDHALALALADDAKNTKERNHDKGENDEELARAIQDSLNMNPYQPYNPCAPSQTQARSRGYRVCGGCKHEIGHGHYLSCLGMYWHPQCFRCSSCRHPIREMEFTLLGTDPYHKLCYKELHHPKCDVCLQFIPTNRTGLIEYRAHPFWGQKYCPLHEHDRTPRCCSCEKMEPRNTKYMSLGDGRSLCMECLDSAIMDTGECQPLYHSIRDYYEGMNMKLDQQIPMLLVERQALNEAMEGESKGPHHMPETRGLCLSEEQTVTSILRRPRIGANRLLDMKTQPQKLTRRCEVTAILVLFGLPRLLTGSILAHELMHGWLRLKGYRNLKAEIEEGICQVMSYLWLESEILPSTSRYGQASTSYASSSSSSCRPPPSKKGGISHTEKKLGEFFLHQIANDTSSAYGDGFRAAYAAVNKYGLRQSLNHIRLTGGFPV
binding [5]: binds

B4: GW2-cLUC (enzyme, UniProt B9F4Q9 1-425)
chain: MGNRIGGRRKAGVEERYTRPQGLYEHRDIDQKKLRKLILEAKLAPCYMGADDAAAAADLEECPICFLYYPSLNRSKCCSKGICTECFLQMKPTHTAQPTQCPFCKTPSYAVEYRGVKTKEERSIEQFEEQKVIEAQMRMRQQALQDEEDKMKRKQNRCSSSRTITPTKEVEYRDICSTSFSVPSYRCAEQETECCSSEPSCSAQTSMRPFHSRHNRDDNIDMNIEDMMVMEAIWRSIQEQGSIGNPVCGNFMPVTEPSPRERQPFVPAASLEIPHGGGFSCAVAAMAEHQPPSMDFSYMAGSSAFPVFDMFRRPCNIAGGSMCNLESSPESWSGIAPSCSREVVREEGECSADHWSEGAEAGTSYAGSDIVADAGTMPQLPFAENFAMAPSHFRPESIEEQMMFSMALSLADGHGRTHSQGLAWL
binding [5]: binds

B5: GW2-GFP (enzyme, UniProt B9F4Q9 1-425)
chain: B4 chain
binding [5]: binds

Now from value to molecule:

binding [1]: binds
Molecule: OsMAPK6-cYFP (from UniProt Q84UI5 1-398) (enzyme)

binding [2]: binds
Molecule: MITOGEN-… PROTEIN KINASE 6 (OsMAPK6), hit of the yeast two-hybrid screen (from UniProt Q84UI5 1-398)
